Measurements taken from paper PMC7398064.
These are yes or no findings as the source states them, for the method shown. In cells and extracts the contact can be indirect. Some binding calls cover weakened binding; strength is not graded here.

The chains behind the UniProt entries cited, without tags or fusion partners.
UniProt O75340: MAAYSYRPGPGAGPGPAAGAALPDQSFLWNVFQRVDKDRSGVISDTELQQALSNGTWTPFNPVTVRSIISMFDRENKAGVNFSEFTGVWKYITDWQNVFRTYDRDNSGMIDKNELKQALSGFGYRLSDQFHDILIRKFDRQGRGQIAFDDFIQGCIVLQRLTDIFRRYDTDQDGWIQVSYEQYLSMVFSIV

How the values were obtained:
[1] = target: Programmed cell death protein 6 (PDCD6) (human (endogenous in HCT116)) (UniProt O75340); assay: co-IP; endogenous proteins, HCT116 lysate immunoprecipitated with anti-PDCD6 or anti-c-Raf antibody in the presence of 5 mM EDTA
[2] = target: Programmed cell death protein 6 (PDCD6) (human (endogenous in HCT116)) (UniProt O75340); assay: co-IP; endogenous proteins, HCT116 lysate (50 mM Tris-HCl pH 7.4, 100 mM NaCl, 0.5 mM Ca2+, 0.5% NP-40); IP with anti-PDCD6 or anti-c-Raf antibody, Western blot
[3] = target: c-Raf (Raf-1) (human (endogenous in HCT116)) (UniProt P04049); assay: co-IP; endogenous proteins, HCT116 lysate immunoprecipitated with anti-PDCD6 or anti-c-Raf antibody in the presence of 5 mM EDTA
[4] = target: c-Raf (Raf-1) (human (endogenous in HCT116)) (UniProt P04049); assay: co-IP; endogenous proteins, HCT116 lysate (50 mM Tris-HCl pH 7.4, 100 mM NaCl, 0.5 mM Ca2+, 0.5% NP-40); IP with anti-PDCD6 or anti-c-Raf antibody, Western blot

Substance | binding [1] | binding [2] | binding [3] | binding [4]
c-Raf (Raf-1) (from UniProt P04049 1-648) | no binding (condition: with 5 mM EDTA) | binds |  | 
Programmed cell death protein 6 (PDCD6) (from UniProt O75340 1-191) |  |  | no binding (condition: with 5 mM EDTA) | binds
